Source: PubChem BioAssay AID248 (DTP/NCI, 2004)
The list is a part of this screen's results and no random one: its compounds were picked by chemical class. Other doses and runs of a compound may be missing. T/C gives the treated animals as a percentage of the vehicle group. Where survival is the endpoint, the PubChem record calls one and a half times the control and up active, and a quarter to a half above the control has no call in these data; cut-offs in other NCI protocols can differ. Schedules are NCI's codes, taken here to give the interval after Q, in days (D) or hours (H), and the number of doses after X. Signs of the kind (2×) stand for listed records that agree. Some doses were run more than once; the values are given in rising order. Some schedule codes hold Z or #, which are not explained here. Some T/C values carry the count of animals alive at the toxicity check (mostly the fifth day); without a count or a note in brackets, all were alive then.

Test system: L1210 leukemia ip in BDF1 mice, survival T/C
Assay: NCI In Vivo Anticancer Drug Screen. Data for tumor model L1210 Leukemia (intraperitoneal) in B6D2F1 (BDF1) mice
Settings: T/C endpoint: mean survival time, higher T/C = longer survival

OC(CNCCCl)C(O)C(O)C(O)CNCCCl (stereo not drawn)
T/C (dose: 0.25 mg/kg/injection, schedule: Q01DX Z (ip), vehicle: saline): 104 % of control | T/C (dose: 0.3 mg/kg/injection, schedule: Q01DX009 (ip), vehicle: saline): 105 % of control | T/C (dose: 0.5 mg/kg/injection, schedule: Q01DX Z (ip), vehicle: saline): 106 % of control | T/C (dose: 0.6 mg/kg/injection, schedule: Q01DX001 (sc), vehicle: saline): 105 % of control | T/C (dose: 0.6 mg/kg/injection, schedule: Q01DX009 (ip), vehicle: saline): 100 % of control | T/C (dose: 1.0 mg/kg/injection, schedule: Q01DX Z (ip), vehicle: saline): 108 % of control | T/C (dose: 1.25 mg/kg/injection, schedule: Q01DX001 (sc), vehicle: saline): 101 % of control | T/C (dose: 1.25 mg/kg/injection, schedule: Q01DX005 (ip), vehicle: saline): 106 % of control | T/C (dose: 1.25 mg/kg/injection, schedule: Q01DX009 (ip), vehicle: saline): 108 % of control (2×) | T/C (dose: 1.25 mg/kg/injection, schedule: Q01DX009 (oral), vehicle: saline): 106 % of control | T/C (dose: 1.4 mg/kg/injection, schedule: Q01DX006 (iv), vehicle: saline): 103 % of control | T/C (dose: 1.4 mg/kg/injection, schedule: Q01DX Z (ip), vehicle: saline): 123 % of control | T/C (dose: 2.0 mg/kg/injection, schedule: Q01DX Z (ip), vehicle: saline): 128 and 134 % of control | T/C (dose: 2.11 mg/kg/injection, schedule: Q01DX Z (ip), vehicle: carboxymethylcellulose (CMC)): 114 % of control | T/C (dose: 2.2 mg/kg/injection, schedule: Q01DX006 (iv), vehicle: saline): 109 % of control | T/C (dose: 2.2 mg/kg/injection, schedule: Q01DX Z (ip), vehicle: saline): 129 % of control | T/C (dose: 2.5 mg/kg/injection, schedule: Q01DX001 (oral), vehicle: saline): 101 % of control | T/C (dose: 2.5 mg/kg/injection, schedule: Q01DX001 (sc), vehicle: saline): 108 % of control | T/C (dose: 2.5 mg/kg/injection, schedule: Q01DX005 (ip), vehicle: saline): 120 % of control | T/C (dose: 2.5 mg/kg/injection, schedule: Q01DX009 (ip), vehicle: saline): 120 and 125 % of control | T/C (dose: 2.5 mg/kg/injection, schedule: Q01DX009 (oral), vehicle: saline): 102 % of control | T/C (dose: 2.5 mg/kg/injection, schedule: Q#A X Z (ip), vehicle: saline): 113 % of control | T/C (dose: 3.3 mg/kg/injection, schedule: Q01DX006 (iv), vehicle: saline): 108 % of control | T/C (dose: 3.3 mg/kg/injection, schedule: Q01DX Z (ip), vehicle: saline): 137 % of control | T/C (dose: 3.75 mg/kg/injection, schedule: Q01DX009 (ip), vehicle: saline): 118 % of control | T/C (dose: 4.0 mg/kg/injection, schedule: Q01DX Z (ip), vehicle: saline): 123 % of control | T/C (dose: 4.22 mg/kg/injection, schedule: Q01DX Z (ip), vehicle: carboxymethylcellulose (CMC)): 112 % of control | T/C (dose: 4.4 mg/kg/injection, schedule: Q03DX Z (ip), vehicle: saline): 116 % of control | T/C (dose: 4.4 mg/kg/injection, schedule: Q07DX Z (ip), vehicle: saline): 114 % of control | T/C (dose: 5.0 mg/kg/injection, schedule: Q01DX001 (ip), vehicle: saline): 108, 112, 127 % of control | T/C (dose: 5.0 mg/kg/injection, schedule: Q01DX001 (oral), vehicle: saline): 97 % of control | T/C (dose: 5.0 mg/kg/injection, schedule: Q01DX001 (sc), vehicle: saline): 117 % of control | T/C (dose: 5.0 mg/kg/injection, schedule: Q01DX005 (ip), vehicle: saline): 128 % of control | T/C (dose: 5.0 mg/kg/injection, schedule: Q01DX006 (iv), vehicle: saline): 108 and 125 % of control | T/C (dose: 5.0 mg/kg/injection, schedule: Q01DX009 (ip), vehicle: saline): 129 and 130 % of control | T/C (dose: 5.0 mg/kg/injection, schedule: Q01DX009 (oral), vehicle: saline): 102 % of control | T/C (dose: 5.0 mg/kg/injection, schedule: Q01DX009 (sc), vehicle: saline): 98 % of control | T/C (dose: 5.0 mg/kg/injection, schedule: Q01DX Z (im), vehicle: saline): 105 % of control | T/C (dose: 5.0 mg/kg/injection, schedule: Q01DX Z (ip), vehicle: saline): 134 [5 of 6 alive] and 152 % of control | T/C (dose: 5.0 mg/kg/injection, schedule: Q01DX Z (oral), vehicle: saline): 101 % of control | T/C (dose: 5.0 mg/kg/injection, schedule: Q01DX Z (sc), vehicle: saline): 102 % of control | T/C (dose: 5.0 mg/kg/injection, schedule: Q## X002 (ip), vehicle: saline): 117 % of control | T/C (dose: 5.0 mg/kg/injection, schedule: Q## X003 (ip), vehicle: saline): 113 % of control | T/C (dose: 5.0 mg/kg/injection, schedule: Q## X008 (ip), vehicle: saline): 109 % of control | T/C (dose: 5.0 mg/kg/injection, schedule: Q## X016 (ip), vehicle: saline): 103 % of control | T/C (dose: 5.0 mg/kg/injection, schedule: Q## X024 (ip), vehicle: saline): 111 % of control | T/C (dose: 5.0 mg/kg/injection, schedule: Q#A X Z (ip), vehicle: saline): 121 % of control | T/C (dose: 6.6 mg/kg/injection, schedule: Q03DX Z (ip), vehicle: saline): 134 % of control | T/C (dose: 6.6 mg/kg/injection, schedule: Q07DX Z (ip), vehicle: saline): 112 % of control | T/C (dose: 7.5 mg/kg/injection, schedule: Q01DX009 (ip), vehicle: saline): 139 % of control | T/C (dose: 7.5 mg/kg/injection, schedule: Q01DX015 (ip), vehicle: saline): 141 % of control | T/C (dose: 8.0 mg/kg/injection, schedule: Q01DX Z (ip), vehicle: saline): 135 and 139 % of control | T/C (dose: 8.45 mg/kg/injection, schedule: Q01DX Z (ip), vehicle: carboxymethylcellulose (CMC)): 131 % of control | T/C (dose: 10.0 mg/kg/injection, schedule: Q01DX001 (ip), vehicle: saline, evaluated on day 30): 120, 129, 130 % of control | T/C (dose: 10.0 mg/kg/injection, schedule: Q01DX001 (ip), vehicle: saline, run until all animals had died): 123 % of control | T/C (dose: 10.0 mg/kg/injection, schedule: Q01DX001 (oral), vehicle: saline): 103 % of control | T/C (dose: 10.0 mg/kg/injection, schedule: Q01DX002 (ip), vehicle: saline): 117 and 118 % of control | T/C (dose: 10.0 mg/kg/injection, schedule: Q01DX005 (ip), vehicle: saline): 143 % of control | T/C (dose: 10.0 mg/kg/injection, schedule: Q01DX006 (iv), vehicle: saline): 110 % of control | T/C (dose: 10.0 mg/kg/injection, schedule: Q01DX009 (ip), vehicle: saline): 145 and 164 % of control | T/C (dose: 10.0 mg/kg/injection, schedule: Q01DX009 (oral), vehicle: saline): 107 % of control | T/C (dose: 10.0 mg/kg/injection, schedule: Q01DX009 (sc), vehicle: saline): 106 % of control | T/C (dose: 10.0 mg/kg/injection, schedule: Q01DX Z (im), vehicle: saline): 112 % of control | T/C (dose: 10.0 mg/kg/injection, schedule: Q01DX Z (ip), vehicle: saline): 133 % of control | T/C (dose: 10.0 mg/kg/injection, schedule: Q01DX Z (oral), vehicle: saline): 97 % of control | T/C (dose: 10.0 mg/kg/injection, schedule: Q01DX Z (sc), vehicle: saline): 116 % of control | T/C (dose: 10.0 mg/kg/injection, schedule: Q03DX Z (ip), vehicle: saline): 153 % of control | T/C (dose: 10.0 mg/kg/injection, schedule: Q07DX Z (ip), vehicle: saline): 112 and 129 % of control | T/C (dose: 10.0 mg/kg/injection, schedule: Q## X002 (ip), vehicle: saline): 122 % of control | T/C (dose: 10.0 mg/kg/injection, schedule: Q## X003 (ip), vehicle: saline): 122 % of control | T/C (dose: 10.0 mg/kg/injection, schedule: Q## X008 (ip), vehicle: saline): 116 % of control | T/C (dose: 10.0 mg/kg/injection, schedule: Q## X016 (ip), vehicle: saline): 103 % of control | T/C (dose: 10.0 mg/kg/injection, schedule: Q## X024 (ip), vehicle: saline): 114 % of control | T/C (dose: 10.0 mg/kg/injection, schedule: Q#A X Z (ip), vehicle: saline): 89 % of control | T/C (dose: 11.0 mg/kg/injection, schedule: Q01DX015 (ip), vehicle: saline): 149 % of control | T/C (dose: 12.5 mg/kg/injection, schedule: Q01DX Z (ip), vehicle: saline): 102 % of control | T/C (dose: 15.0 mg/kg/injection, schedule: Q01DX001 (ip), vehicle: saline): 134 % of control | T/C (dose: 15.0 mg/kg/injection, schedule: Q01DX002 (ip), vehicle: saline): 115 and 122 % of control | T/C (dose: 15.0 mg/kg/injection, schedule: Q01DX009 (ip), vehicle: saline): 149 % of control | T/C (dose: 15.0 mg/kg/injection, schedule: Q03DX Z (ip), vehicle: saline): 134 and 159 % of control | T/C (dose: 15.0 mg/kg/injection, schedule: Q07DX Z (ip), vehicle: saline): 150 % of control | T/C (dose: 16.0 mg/kg/injection, schedule: Q01DX Z (ip), vehicle: saline): 172 % of control | T/C (dose: 16.9 mg/kg/injection, schedule: Q01DX Z (ip), vehicle: carboxymethylcellulose (CMC)): 127 % of control | T/C (dose: 17.0 mg/kg/injection, schedule: Q01DX015 (ip), vehicle: saline): 155 % of control | T/C (dose: 17.0 mg/kg/injection, schedule: Q01DX Z (ip), vehicle: carboxymethylcellulose (CMC)): 143 % of control | T/C (dose: 20.0 mg/kg/injection, schedule: Q01DX001 (ip), vehicle: saline): 109, 128, 132 % of control | T/C (dose: 20.0 mg/kg/injection, schedule: Q01DX001 (oral), vehicle: saline): 97 % of control | T/C (dose: 20.0 mg/kg/injection, schedule: Q01DX005 (ip), vehicle: saline): 172 % of control | T/C (dose: 20.0 mg/kg/injection, schedule: Q01DX006 (iv), vehicle: saline): 122 % of control | T/C (dose: 20.0 mg/kg/injection, schedule: Q01DX009 (ip), vehicle: saline): 156 and 165 % of control | T/C (dose: 20.0 mg/kg/injection, schedule: Q01DX009 (oral), vehicle: saline): 112 % of control [5 of 6 alive] | T/C (dose: 20.0 mg/kg/injection, schedule: Q01DX009 (sc), vehicle: saline): 118 % of control | T/C (dose: 20.0 mg/kg/injection, schedule: Q01DX Z (im), vehicle: saline): 129 % of control | T/C (dose: 20.0 mg/kg/injection, schedule: Q01DX Z (ip), vehicle: saline): 100 % of control | T/C (dose: 20.0 mg/kg/injection, schedule: Q01DX Z (oral), vehicle: saline): 103 and 118 % of control | T/C (dose: 20.0 mg/kg/injection, schedule: Q01DX Z (sc), vehicle: saline): 144 % of control | T/C (dose: 20.0 mg/kg/injection, schedule: Q## X002 (ip), vehicle: saline): 135 % of control | T/C (dose: 20.0 mg/kg/injection, schedule: Q## X003 (ip), vehicle: saline): 134 % of control | T/C (dose: 20.0 mg/kg/injection, schedule: Q## X008 (ip), vehicle: saline): 123 % of control | T/C (dose: 20.0 mg/kg/injection, schedule: Q## X016 (ip), vehicle: saline): 104 % of control | T/C (dose: 20.0 mg/kg/injection, schedule: Q## X024 (ip), vehicle: saline): 124 % of control | T/C (dose: 20.0 mg/kg/injection, schedule: Q#A X Z (ip), vehicle: saline): 113 and 118 % of control | T/C (dose: 23.0 mg/kg/injection, schedule: Q01DX001 (ip), vehicle: saline): 141 % of control
